# In the supplement of paper PMC8728848:
# This is one part of the list.
# Tests used:
# Test in all cases: glycan array binding signal (z-score within array); higher = stronger binding
# Details in all cases: glycan notation: IUPAC condensed, linker removed
# Glc(b1-6)Glc = molecular target: Glc(b1-6)Glc
# Method in brief: (§1)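 Negative Z-scores can be read as non-binding. The Z-score is calculated within each array and then averaged across arrays of one protein sequence at different concentrations or buffers and across linkers. Arrays, 3228 in all, were curated from the Consortium for Functional Glycomics database and kept only where the protein sequence was available.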
# GlcA(b1-3)Gal = molecular target: GlcA(b1-3)Gal
# Method in brief: as §1
# GlcA(b1-3)GlcNAc = molecular target: GlcA(b1-3)GlcNAc
# Method in brief: as §1
# GlcA(b1-6)Gal = molecular target: GlcA(b1-6)Gal
# Method in brief: as §1
# [1] = molecular target: GlcA3S(b1-3)Gal(b1-4)GlcNAc(b1-2)Man
# Method in brief: as §1
# [2] = molecular target: GlcA3S(b1-3)Gal(b1-4)GlcNAc(b1-3)Gal(b1-4)Glc
# Method in brief: as §1
# [3] = molecular target: GlcNAc(a1-3)Gal(b1-4)GlcNAc
# Method in brief: as §1
# [4] = molecular target: GlcNAc(a1-4)Gal(b1-3)GlcNAc
# Method in brief: as §1
# [5] = molecular target: GlcNAc(a1-4)Gal(b1-4)GalNAc
# Method in brief: as §1
# [6] = molecular target: GlcNAc(a1-4)Gal(b1-4)GlcNAc
# Method in brief: as §1
# [7] = molecular target: GlcNAc(a1-4)Gal(b1-4)GlcNAc(b1-3)Gal(b1-4)Glc
# Method in brief: as §1
# [8] = molecular target: GlcNAc(a1-4)Gal(b1-4)GlcNAc(b1-3)Gal(b1-4)GlcNAc
# Method in brief: as §1
# [9] = molecular target: GlcNAc(a1-4)Gal(b1-4)GlcNAc(b1-3)Gal(b1-4)GlcNAc(b1-3)Gal(b1-4)GlcNAc
# Method in brief: as §1
# [10] = molecular target: GlcNAc(a1-4)Gal(b1-4)GlcNAc(b1-3)Gal(b1-4)[Fuc(a1-3)]GlcNAc(b1-3)Gal(b1-4)[Fuc(a1-3)]GlcNAc
# Method in brief: as §1
# [11] = molecular target: GlcNAc(a1-6)Gal(b1-4)GlcNAc
# Method in brief: as §1
# [12] = molecular target: GlcNAc(b1-2)Gal(b1-3)GalNAc
# Method in brief: as §1
# [13] = molecular target: GlcNAc(b1-2)Man(a1-3)[GlcNAc(b1-2)Man(a1-6)]Man(b1-4)GlcNAc(b1-4)GlcNAc
# Method in brief: as §1
# [14] = molecular target: GlcNAc(b1-2)Man(a1-3)[GlcNAc(b1-2)Man(a1-6)]Man(b1-4)GlcNAc(b1-4)[Fuc(a1-6)]GlcNAc
# Method in brief: as §1
# [15] = molecular target: GlcNAc(b1-2)Man(a1-3)[GlcNAc(b1-4)][GlcNAc(b1-2)Man(a1-6)]Man(b1-4)GlcNAc(b1-4)GlcNAc
# Method in brief: as §1
# [16] = molecular target: GlcNAc(b1-2)Man(a1-3)[GlcNAc(b1-4)][GlcNAc(b1-2)Man(a1-6)]Man(b1-4)GlcNAc(b1-4)[Fuc(a1-6)]GlcNAc
# Method in brief: as §1
# [17] = molecular target: GlcNAc(b1-2)[GlcNAc(b1-4)]Man(a1-3)[GlcNAc(b1-2)Man(a1-6)]Man(b1-4)GlcNAc(b1-4)GlcNAc
# Method in brief: as §1
# [18] = molecular target: GlcNAc(b1-2)[GlcNAc(b1-4)]Man(a1-3)[GlcNAc(b1-4)][GlcNAc(b1-2)Man(a1-6)]Man(b1-4)GlcNAc(b1-4)GlcNAc
# Method in brief: as §1
# [19] = molecular target: GlcNAc(b1-2)[GlcNAc(b1-4)]Man(a1-3)[GlcNAc(b1-4)][GlcNAc(b1-2)[GlcNAc(b1-6)]Man(a1-6)]Man(b1-4)GlcNAc(b1-4)GlcNAc
# Method in brief: as §1
# [20] = molecular target: GlcNAc(b1-2)[GlcNAc(b1-4)]Man(a1-3)[GlcNAc(b1-4)][GlcNAc(b1-2)[GlcNAc(b1-6)]Man(a1-6)]Man(b1-4)GlcNAc(b1-4)[Fuc(a1-6)]GlcNAc
# Method in brief: as §1
# [21] = molecular target: GlcNAc(b1-2)[GlcNAc(b1-6)]Man(a1-6)[GlcNAc(b1-2)Man(a1-3)]Man(b1-4)GlcNAc(b1-4)GlcNAc
# Method in brief: as §1
# [22] = molecular target: GlcNAc(b1-2)[GlcNAc(b1-6)]Man(a1-6)[GlcNAc(b1-2)Man(a1-3)]Man(b1-4)GlcNAc(b1-4)[Fuc(a1-6)]GlcNAc
# Method in brief: as §1
# [23] = molecular target: GlcNAc(b1-2)[GlcNAc(b1-6)]Man(a1-6)[GlcNAc(b1-4)][GlcNAc(b1-2)Man(a1-3)]Man(b1-4)GlcNAc(b1-4)GlcNAc
# Method in brief: as §1
# GlcNAc(b1-3)Fuc = molecular target: GlcNAc(b1-3)Fuc
# Method in brief: as §1
# GlcNAc(b1-3)Gal = molecular target: GlcNAc(b1-3)Gal
# Method in brief: as §1
# [24] = molecular target: GlcNAc(b1-3)Gal(b1-3)GalNAc
# Method in brief: as §1
# GlcNAc(b1-3)Gal(b1-4)Glc = molecular target: GlcNAc(b1-3)Gal(b1-4)Glc
# Method in brief: as §1
# [25] = molecular target: GlcNAc(b1-3)Gal(b1-4)GlcNAc
# Method in brief: as §1
# [26] = molecular target: GlcNAc(b1-3)Gal(b1-4)GlcNAc(b1-2)Man(a1-3)[GlcNAc(b1-3)Gal(b1-4)GlcNAc(b1-2)Man(a1-6)]Man(b1-4)GlcNAc(b1-4)GlcNAc
# Method in brief: as §1
# [27] = molecular target: GlcNAc(b1-3)Gal(b1-4)GlcNAc(b1-2)Man(a1-3)[GlcNAc(b1-3)Gal(b1-4)GlcNAc(b1-2)Man(a1-6)]Man(b1-4)GlcNAc(b1-4)[Fuc(a1-6)]GlcNAc
# Method in brief: as §1
# [28] = molecular target: GlcNAc(b1-3)Gal(b1-4)GlcNAc(b1-2)[GlcNAc(b1-3)Gal(b1-4)GlcNAc(b1-6)]Man(a1-6)[GlcNAc(b1-3)Gal(b1-4)GlcNAc(b1-2)Man(a1-3)]Man(b1-4)GlcNAc(b1-4)GlcNAc
# Method in brief: as §1
# [29] = molecular target: GlcNAc(b1-3)Gal(b1-4)GlcNAc(b1-3)Gal(b1-4)GlcNAc
# Method in brief: as §1
# [30] = molecular target: GlcNAc(b1-3)Gal(b1-4)GlcNAc(b1-3)Gal(b1-4)GlcNAc(b1-2)Man(a1-3)[GlcNAc(b1-3)Gal(b1-4)GlcNAc(b1-3)Gal(b1-4)GlcNAc(b1-2)Man(a1-6)]Man(b1-4)GlcNAc(b1-4)GlcNAc
# Method in brief: as §1
binder,measurement,setting,value
Aap brpt (Staphylococcus epidermidis) (protein) VDGDPITSTEEIPFDKKREFDPNLAPGTEKVVQKGEPGTKTITTPTTKNPLTGEKVGEGEPTEKITKQPVDEIVHYGGEEIKTGHKDEFDPNAPKGSQTTQPGKPGVKNPDTGEVVTPPVDDVTKYGPVDGDPITSTEEIPFDKKREFDPNLAPGTEKVVQKGEPGTKTITTPTTKNPLTGEKVGEGEPTEKITKQPVDEIVHYGGEEIKPGHKDEFDPNAPKGSQEDVPGKPGVKNPDTGEVVTPPVDDVTKYGPVDGDSITSTEEIPFDKKREFDPNLAPGTEKVVQKGEPGTKTITTPTTKNPLTGEKVGEGEPTEKITKQPVDEIVHYGGEQIPQGHKDEFDPNAPVDSKTEVPGKPGVKNPDTGEVVTPPVDDVTKYGPVDGDSITSTEEIPFDKKREFDPNLAPGTEKVVQKGEPGTKTITTPTTKNPLTGEKVGEGKSTEKVTKQPVDEIVEYGPTK,glycan array binding signal (z-score),Glc(b1-6)Glc,0.662
same,glycan array binding signal (z-score),GlcA(b1-3)Gal,-0.602
same,glycan array binding signal (z-score),GlcA(b1-3)GlcNAc,-0.165
same,glycan array binding signal (z-score),GlcA(b1-6)Gal,-0.324
same,glycan array binding signal (z-score),[1],0.61
same,glycan array binding signal (z-score),[2],-0.353
same,glycan array binding signal (z-score),[3],0.277
same,glycan array binding signal (z-score),[4],-0.124
same,glycan array binding signal (z-score),[5],-1.15
same,glycan array binding signal (z-score),[6],0.955
same,glycan array binding signal (z-score),[7],-1.29
same,glycan array binding signal (z-score),[8],0.49
same,glycan array binding signal (z-score),[9],0.541
same,glycan array binding signal (z-score),[10],-0.133
same,glycan array binding signal (z-score),[11],0.058
same,glycan array binding signal (z-score),[12],-1.55
same,glycan array binding signal (z-score),[13],1.01
same,glycan array binding signal (z-score),[14],0.002
same,glycan array binding signal (z-score),[15],-0.949
same,glycan array binding signal (z-score),[16],1.38
same,glycan array binding signal (z-score),[17],1.57
same,glycan array binding signal (z-score),[18],-0.988
same,glycan array binding signal (z-score),[19],-1.08
same,glycan array binding signal (z-score),[20],0.314
same,glycan array binding signal (z-score),[21],1.43
same,glycan array binding signal (z-score),[22],-0.222
same,glycan array binding signal (z-score),[23],-0.067
same,glycan array binding signal (z-score),GlcNAc(b1-3)Fuc,0.901
same,glycan array binding signal (z-score),GlcNAc(b1-3)Gal,-1.21
same,glycan array binding signal (z-score),[24],0.291
same,glycan array binding signal (z-score),GlcNAc(b1-3)Gal(b1-4)Glc,-0.381
same,glycan array binding signal (z-score),[25],-0.004
same,glycan array binding signal (z-score),[26],0.533
same,glycan array binding signal (z-score),[27],-0.784
same,glycan array binding signal (z-score),[28],-0.649
same,glycan array binding signal (z-score),[29],-0.363
same,glycan array binding signal (z-score),[30],0.198

# Fetched one by one from the list above (2):
binder,measurement,setting,value
Aap brpt (Staphylococcus epidermidis) (protein) VDGDPITSTEEIPFDKKREFDPNLAPGTEKVVQKGEPGTKTITTPTTKNPLTGEKVGEGEPTEKITKQPVDEIVHYGGEEIKTGHKDEFDPNAPKGSQTTQPGKPGVKNPDTGEVVTPPVDDVTKYGPVDGDPITSTEEIPFDKKREFDPNLAPGTEKVVQKGEPGTKTITTPTTKNPLTGEKVGEGEPTEKITKQPVDEIVHYGGEEIKPGHKDEFDPNAPKGSQEDVPGKPGVKNPDTGEVVTPPVDDVTKYGPVDGDSITSTEEIPFDKKREFDPNLAPGTEKVVQKGEPGTKTITTPTTKNPLTGEKVGEGEPTEKITKQPVDEIVHYGGEQIPQGHKDEFDPNAPVDSKTEVPGKPGVKNPDTGEVVTPPVDDVTKYGPVDGDSITSTEEIPFDKKREFDPNLAPGTEKVVQKGEPGTKTITTPTTKNPLTGEKVGEGKSTEKVTKQPVDEIVEYGPTK,glycan array binding signal (z-score),GlcA(b1-3)GlcNAc,-0.165
same,glycan array binding signal (z-score),[14],0.002
